Source: ChEMBL document CHEMBL3988442, “University of Dundee, Small-Polar-MMV Screening Library” (2021).

The chains behind the UniProt entries cited, without tags or fusion partners.
UniProt E9BF75, entry or part of it: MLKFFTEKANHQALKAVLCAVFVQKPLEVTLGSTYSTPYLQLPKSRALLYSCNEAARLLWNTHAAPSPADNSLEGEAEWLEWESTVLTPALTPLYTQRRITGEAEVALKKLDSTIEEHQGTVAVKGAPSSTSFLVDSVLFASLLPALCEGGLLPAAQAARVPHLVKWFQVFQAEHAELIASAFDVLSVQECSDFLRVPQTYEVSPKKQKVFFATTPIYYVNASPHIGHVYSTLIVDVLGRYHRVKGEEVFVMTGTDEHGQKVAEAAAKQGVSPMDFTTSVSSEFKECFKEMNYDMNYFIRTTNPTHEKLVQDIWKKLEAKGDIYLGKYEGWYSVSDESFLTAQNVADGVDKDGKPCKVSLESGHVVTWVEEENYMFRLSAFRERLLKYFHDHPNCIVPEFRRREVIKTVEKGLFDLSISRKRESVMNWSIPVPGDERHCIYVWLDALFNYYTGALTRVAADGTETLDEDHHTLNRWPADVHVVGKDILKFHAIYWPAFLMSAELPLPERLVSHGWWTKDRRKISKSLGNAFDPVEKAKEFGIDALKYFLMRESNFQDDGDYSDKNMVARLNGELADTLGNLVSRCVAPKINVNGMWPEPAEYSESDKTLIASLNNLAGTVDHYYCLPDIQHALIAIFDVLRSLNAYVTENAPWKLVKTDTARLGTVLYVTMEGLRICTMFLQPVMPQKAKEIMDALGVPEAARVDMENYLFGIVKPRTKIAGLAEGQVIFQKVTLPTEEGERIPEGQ

All values are in %.
The controls that fix the scale are not given in the record; negative values are as filed.
This is an unselected part of the compounds tested.

A: 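Primary screen of methionyl-tRNA synthetase; the read-out is not stated. Target: Methionyl-tRNA synthetase (putative), Leishmania donovani (UniProt E9BF75). The test concentration is not given. Values are per cent inhibition. About 68,000 compounds were tested under these conditions; 0.035% (about 24) showed 50% or more at least once.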
B: 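Assay on Mycobacterium tuberculosis, filed only as a heat shock assay from Cornell; the read-out is not stated. The concentration is filed as 10 mM, unlikely as a test dose, so the dose is not known. The record gives no direction; compounds that gave an IC50 in retests scored well above the rest, so higher reads as stronger inhibition. About 69,000 compounds were tested under these conditions; 1.4% (about 930) showed 50% or more at least once.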

{"smiles": "CCc1onc(C)c1C(=O)N1CCN(c2ncc3c(n2)CCOC3)CC1.Cl", "B": -10.25}
{"smiles": "Cc1ccc(-n2c(C)nnc2SCC(O)COCc2ccco2)cc1", "stereo": "stereo not given", "A": 14.66, "B": 34.61}
{"smiles": "O=C(c1ccccc1OCC1CC1)N1CCCC(n2ccnc2)C1", "stereo": "stereo not given", "A": 9.722, "B": 2.428}
{"smiles": "NC(=O)Cn1cc(NC(=O)N2CCC(c3ccccc3)CC2)cn1", "A": 21.58, "B": 3.285}
{"smiles": "Cc1cc(Nc2nc(C)cs2)nc(C2CCCCN2CCO)n1", "stereo": "stereo not given", "A": 3.082, "B": 103.2}
{"smiles": "Cn1nc(C2CCN(C(=O)c3cccs3)CC2)c2cccnc21", "A": 13.02, "B": 0.4065}
{"smiles": "NCC(=O)N1CCC(c2cncc(Oc3cccnc3)n2)CC1", "A": 16.95, "B": -6.248}
{"smiles": "Cc1ccccc1CC(C)NCc1c(C)nn(C)c1N1CCOCC1.Cl", "stereo": "stereo not given", "B": -3.714}
{"smiles": "CCNC(=O)[C@@H]1C[C@H](NC(=O)c2ccc(C)s2)CN1Cc1ccc(C)o1", "A": 11.53, "B": 7.997}
{"smiles": "COC(=O)c1sccc1CN1CCN(C(=O)c2ccc(C)o2)CC1", "A": 10.14, "B": -13.41}
{"smiles": "CC(C)N(C)Cc1cncc2c1CCN(CC1CC1)C2.Cl.Cl.Cl", "B": 9.593}
{"smiles": "Cc1nccn1C1CCCN(C(=O)c2ccc3c(c2)nc(C)n3C)C1", "stereo": "stereo not given", "A": 14.8, "B": 3.201}
{"smiles": "CN(C)C[C@@H]1CN(Cc2ccccc2C#N)C[C@@H]1CO", "A": 6.452, "B": -7.525}
{"smiles": "c1csc(CN2CCCC3(COCCN(c4cnccn4)C3)C2)c1", "stereo": "stereo not given", "A": 11.94}
{"smiles": "CCOCc1ncn2c1CN(S(=O)(=O)c1ccc(F)cc1)CC2", "A": -1.613, "B": -2.175}
{"smiles": "CC(C)CN1CCc2c(CN(C)Cc3ccco3)cncc2C1.Cl.Cl.Cl", "B": -10.13}
{"smiles": "COc1ccc(NC(=O)c2cnc(C3CCN(C)CC3)nc2C)cc1", "A": 11.05, "B": -11.04}
{"smiles": "CCn1ncc(-c2cc(C(F)(F)F)nc(N3CCC(N)CC3)n2)c1C", "A": 8.873, "B": 23.29}
{"smiles": "COc1ccc(CC2(C(=O)O)CCN(c3nc(C)ncc3C)CC2)cc1", "A": 16.42, "B": -20.77}
{"smiles": "Cc1nc(C)c(CN2CCOC[C@H](Oc3ccc(S(C)(=O)=O)cc3)C2)s1", "A": 8.795, "B": -13.61}
{"smiles": "CN(C(=O)c1ccc(-n2ncc(C#N)c2N)cc1)C1CCCC1", "A": 22.95, "B": -11.21}
{"smiles": "CCCc1nc(C)cc(N2CCC3(CCC(=O)N(CCCO)C3)CC2)n1", "A": 6.406, "B": 8.426}
{"smiles": "COC(CNC(=O)c1ccc(NC(C)=O)cc1)c1cccc(Cl)c1", "stereo": "stereo not given", "A": 18.43, "B": -94.41}
{"smiles": "Cc1cc(C(F)(F)F)nc(N2CCN(Cc3nccn3C)CC2)n1", "A": 7.116, "B": -15.28}
{"smiles": "Cc1nn(C)c2ncc(NC(=O)N3CCCCCC3)cc12", "A": -19.34, "B": -9.647}
{"smiles": "O=c1cc(CN(CCO)C2CC2)nc2ccc(Cl)cn12", "A": 11.17, "B": -19.98}
{"smiles": "[H][C@@]12CCN(Cc3nccs3)C[C@@]1([H])O[C@H](C)C2", "B": 1.369}
{"smiles": "Cl.O=C(NC[C@@]1(COc2cnccn2)C[C@@H](O)[C@@H](O)C1)C1CCOCC1", "B": 0.3113}
{"smiles": "COc1cccc(CC2CN(C3CCCCC3)CCO2)c1", "stereo": "stereo not given", "A": 7.902, "B": -10.91}
{"smiles": "CC(C)c1nnc(NC(=O)CCC(=O)NCC2CCCO2)s1", "stereo": "stereo not given", "A": 7.365, "B": -7.286}
{"smiles": "c1ncn(CC2CCCN(CC3CCCCC3)C2)n1", "stereo": "stereo not given", "A": 15.25, "B": -23.01}
{"smiles": "CC(C)NC(=O)c1cc2c(c3ccccc3n2C)n1C(=O)N(C)C", "A": 6.667, "B": -13}
{"smiles": "Cc1ccc(SC2CCCC2)c(C(=O)NCc2n[nH]c(=O)[nH]2)c1", "A": 10, "B": -20.86}
{"smiles": "CC(C)c1ccc(OCCC(=O)N2CCC(CC(N)=O)CC2)cc1", "A": 13.27, "B": -7.926}
{"smiles": "Cc1cc(C)n(-c2cncc(N3CCN(C(=O)C(C)(C)C)CC3)n2)n1", "A": 21.9, "B": 8.763}
{"smiles": "CN(C)CCN(Cc1ccc(C#N)cc1)C(=O)c1ccn(C)c(=O)c1", "A": 7.003, "B": -0.8481}
{"smiles": "Cc1ncc(CNC(=O)Cc2cccs2)c(C2CCCN2C)n1", "stereo": "stereo not given", "A": 14.69, "B": -8.989}
{"smiles": "CC(CNC(=O)c1ccccc1Oc1cccnc1)N(C)C", "stereo": "stereo not given", "A": 9.058, "B": 5.846}
{"smiles": "O=C(c1cccc(O)c1)N1C[C@@H](CN2CCCCC2)[C@@H](CO)C1", "A": 13.41, "B": -13.57}
{"smiles": "CCn1cc(CN2CCCC2c2nc(C(C)C)no2)cc1C#N", "stereo": "stereo not given", "A": 1.005, "B": -23.21}
{"smiles": "CS(=O)(=O)N1CCCCC1CCc1ccc(O)cc1", "stereo": "stereo not given", "A": 9.14, "B": -5.874}

Once more, the final 3:

{"smiles": "O=C(c1cccc(O)c1)N1C[C@@H](CN2CCCCC2)[C@@H](CO)C1", "A": 13.41, "B": -13.57}
{"smiles": "CCn1cc(CN2CCCC2c2nc(C(C)C)no2)cc1C#N", "stereo": "stereo not given", "A": 1.005, "B": -23.21}
{"smiles": "CS(=O)(=O)N1CCCCC1CCc1ccc(O)cc1", "stereo": "stereo not given", "A": 9.14, "B": -5.874}